# Values from PubChem BioAssay AID504774 (Drosophila RNAi Screening Center, 2011).
# Assay: 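Genes required for cells to withstand methyl methanesulphonate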 (primary screen)
# Cell system: Drosophila Kc167 cells
# Knock-down reagent: long dsRNA against Drosophila genes, about 0.25 µg dsRNA per well
# Time to read-out: about 6 days: 3 days knock-down, then 3 days with or without MMS
# Conditions: methyl methanesulphonate 0.004% (w/v) for 3 days after knock-down
# Detection: 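ATP-dependent luminescence as a measure of live cells in MMS-exposed wells, quantile normalised within each plate, with replicate values also given as a mean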
# Scale: mean viability with MMS and viability with MMS: higher = more surviving cells after MMS
# The deposit covers about 23,000 reagents; this is an unselected part of those that have a named target and a result. 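Values are quantile-normalised luminescence on an arbitrary scale; higher means more cells surviving MMS.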 A plus sign joins genes that one reagent is predicted to hit. No sequences are given here.
target,DRSC id,mean viability with MMS,"viability with MMS, replicate 1","viability with MMS, replicate 2"
Pp2C1,DRSC18699,3.59e6,3.84e6,4.07e6
Pp2C1,DRSC23287,3.63e6,3.98e6,4.27e6
fred,DRSC00349,3.70e6,4.20e6,4.11e6
fred,DRSC00599,3.45e6,4.04e6,3.92e6
fred,DRSC00601,3.41e6,3.86e6,3.86e6
fred,DRSC00602,3.59e6,3.95e6,4.17e6
fred,DRSC21906,3.55e6,3.97e6,4.07e6
Tina-1,DRSC04317,3.53e6,3.95e6,4.05e6
CG13937,DRSC08406,1.81e6,4.01e6,
CG3494,DRSC04375,3.45e6,3.84e6,3.95e6
CG13319,DRSC06356,1.95e6,4.07e6,
zda,DRSC06936,3.46e6,3.89e6,3.95e6
CG3071,DRSC18526,3.60e6,4.04e6,4.11e6
eIF4E5,DRSC10975,3.37e6,3.76e6,3.83e6
RpS11,DRSC07289,3.47e6,3.91e6,3.92e6
RpS11,DRSC22700,2.84e6,3.65e6,3.68e6
CG17327,DRSC15225,3.51e6,4.01e6,3.94e6
CG3558,DRSC00615,3.72e6,4.13e6,4.35e6
RtcB,DRSC03280,3.57e6,4.02e6,4.10e6
CG33303,DRSC02848,3.89e6,3.87e6,4.96e6
Apt1,DRSC10348,3.48e6,4.05e6,3.82e6
tyn,DRSC20652,3.60e6,4.12e6,4.02e6
obst-A,DRSC20543,3.68e6,4.19e6,4.20e6
lncRNA:roX1,DRSC21884,3.57e6,4.07e6,4.00e6
Spindly,DRSC00430,3.25e6,3.48e6,3.73e6
Txl,DRSC11310,3.35e6,3.86e6,3.69e6
Helz,DRSC11072,3.52e6,4.01e6,3.97e6
Elys,DRSC19571,3.33e6,3.70e6,3.77e6
CG16952,DRSC19759,3.53e6,4.08e6,3.94e6
CG33679,DRSC01436,3.55e6,4.07e6,3.97e6
His3.3B,DRSC17773,3.50e6,3.85e6,4.07e6
His3.3B,DRSC18673,3.35e6,3.79e6,3.84e6
CG13458,DRSC10005,3.70e6,4.32e6,4.01e6
7B2,DRSC11991,3.68e6,4.21e6,4.10e6
CG33964 + CG13175,DRSC06300,3.50e6,3.88e6,4.02e6
CG33964 + CG13175,DRSC06301,3.43e6,3.98e6,3.88e6
CG33964 + CG13175,DRSC07184,3.52e6,4.02e6,3.94e6
xmas-1 (retired record),DRSC20386,3.42e6,3.82e6,3.90e6
Smox,DRSC18716,3.63e6,4.14e6,4.09e6
CG8461,DRSC16424,3.45e6,3.87e6,3.92e6
acs,DRSC08185,3.72e6,4.03e6,4.30e6
CR31032,DRSC22457,3.74e6,4.22e6,4.12e6
rtp,DRSC12132,3.46e6,3.94e6,3.89e6
pug,DRSC17036,3.52e6,4.00e6,3.99e6
CG6660,DRSC16087,3.55e6,4.00e6,4.05e6
Adsl,DRSC15500,3.56e6,4.04e6,4.03e6
